# Laboratory results as given in the supplement of paper PMC12889115.
# Some of the results follow. These are raw signals, not scaled to a control.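 First-pass screen: polymyxin B was added at a level that permeabilizes the Salmonella outer membrane while sparing the inner membrane. DMSO wells, with and without polymyxin B, defined maximum growth. Because plates differed from one another, each plate's data were ranked separately and the compounds with the lowest OD600 were carried forward as hits.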
# Tested on: Salmonella enterica serovar Typhimurium SL1344
# Test: bacterial growth OD600 after 18 h with compound and polymyxin B; higher = more bacterial growth (less inhibition)
# Settings: 50 µM, Mueller-Hinton broth
SMILES,bacterial growth OD600 (polymyxin B 1 µg/mL),bacterial growth OD600 (polymyxin B 0.75 µg/mL)
COc1ccc(CN(C)Cc2nc(-c3ccc(C(F)(F)F)cc3)no2)cc1OC,0.853,
Cc1ncc2c(c1CNC(=O)c1ccc3c(c1)OCO3)CCN(C(=O)c1c(F)cccc1Cl)C2,,0.906
O=C(CCC(F)(F)F)N1CCC(C2CCN(c3ncccn3)CC2)C1 (stereo not given),,0.729
COCCC(=O)N1CCCC(CCc2ccccc2C)C1 (stereo not given),,0.661
COCCCNc1nc2nonc2nc1NC[C@@H]1CCCN2CCCC[C@H]12,,0.811
CC(=O)NCCC1CCN(c2nc3nonc3nc2N2CCCCCC2)CC1,0.954,
CC1=C(C(=O)NC2CC(=O)N(Cc3ccccc3C(F)(F)F)C2)OCCO1 (stereo not given),0.925,
COCC(=O)NCc1cccnc1Oc1ccccc1OC,0.924,
OC(Cc1ccccc1)c1ccc2c(c1)CN(Cc1cccn1-c1cccnc1)CCO2 (stereo not given),,0.806
OCCC1CN(Cc2cc3c(cc2Cl)OCO3)CCN1Cc1ccccc1F (stereo not given),0.654,
COc1ccc(CNC(=O)CCC2CCCN(Cc3ccc(F)c(OC)c3)C2)c(OC)c1 (stereo not given),1.09,
CCOC(=O)C1(Cc2ccc(Cl)cc2)CCN(Cc2ccc(OC)c(O)c2)CC1,1.03,
CC(C)CCCC1CN(C(=O)CCc2ccncc2)CCO1 (stereo not given),0.937,
COCCCN1C(=O)CC(CC(=O)NCCc2ccccc2OC)(c2ccccc2)C1=O (stereo not given),,0.75
CN(CC1(c2ccccc2)CC1(C)C)C(=O)CCC1(Cc2ccc(F)cc2)CCC(=O)N1 (stereo not given),,0.576
Cc1nc(N2CCC(C(=O)NCCCOC(C)C)CC2)nc2cc(S(C)(=O)=O)ccc12,,0.93
COCCO[C@H]1[C@H](NC(=O)C(C)C)c2ccccc2C12CCN(Cc1c(C)nn(C)c1Cl)CC2,,0.877
CN(CC1CCN(CCc2ccc(F)cc2)CC1)C1CCN(Cc2cccnc2)CC1,1.14,
O=C(CCc1cnccn1)NC1CC(=O)N(Cc2cccc3ccccc23)C1 (stereo not given),0.801,
O=C(CCC1(Cc2ccc(Cl)cc2)CCC(=O)N1)NCCc1ccc(F)cc1 (stereo not given),,0.943
CC(CCn1cccn1)NC(=O)c1ccc(OC2CCN(C(=O)C3CC3)CC2)cc1 (stereo not given),0.833,
O=C(COc1ccc(N2CCN(c3ccccn3)CC2)nn1)NCCC(c1ccccc1)c1ccco1 (stereo not given),,0.515
COc1cccc(CC(C2CCN(C(=O)c3ccccc3OC)CC2)N(C)C(=O)c2ccsc2)c1 (stereo not given),,0.641
CCn1cc(CN2CCOC(Cc3cccc(C(F)(F)F)c3)C2)cn1 (stereo not given),,0.803
COC(=O)c1cccc(C(=O)N2CCC(C(Cc3ccccc3)N(C)C(=O)Cn3cccn3)CC2)c1 (stereo not given),,0.976
COc1ccc(CNC(=O)CCC2(Cc3ccc(Cl)cc3)CCC(=O)N2)cc1OC (stereo not given),,0.837
Cc1cc(C)n(CC(=O)N2CCOc3c(cc(-c4csc5ccccc45)cc3OCc3ccccn3)C2)n1,,0.079
O=C1CC(NC2CCCCC2)CN1CCc1ccccc1 (stereo not given),1.12,
Cc1cc(C)n(CCC(=O)NC2CCCc3nc(-c4cccnc4)ncc32)n1 (stereo not given),,0.849
CCC(=O)N[C@@H]1c2ccccc2C2(CCN(C(=O)c3cccc(OC)c3OC)CC2)[C@H]1OCCOC,,0.714

# Fetched one by one from the entries so far, 2 records:
SMILES,bacterial growth OD600 (polymyxin B 1 µg/mL),bacterial growth OD600 (polymyxin B 0.75 µg/mL)
CC(=O)NCCC1CCN(c2nc3nonc3nc2N2CCCCCC2)CC1,0.954,
COc1ccc(CN(C)Cc2nc(-c3ccc(C(F)(F)F)cc3)no2)cc1OC,0.853,
